# Measurements reported in the supplement of paper PMC12823440, “Inhibitors supercharge kinase turnover through native proteolytic circuits” (Nature, 2025).
# Chains of the proteins cited; added tags and fusions are not shown. Lines headed by an entry give the natural chain unless they say otherwise; changes in a name come on top.
# UniProt Q9BRS2: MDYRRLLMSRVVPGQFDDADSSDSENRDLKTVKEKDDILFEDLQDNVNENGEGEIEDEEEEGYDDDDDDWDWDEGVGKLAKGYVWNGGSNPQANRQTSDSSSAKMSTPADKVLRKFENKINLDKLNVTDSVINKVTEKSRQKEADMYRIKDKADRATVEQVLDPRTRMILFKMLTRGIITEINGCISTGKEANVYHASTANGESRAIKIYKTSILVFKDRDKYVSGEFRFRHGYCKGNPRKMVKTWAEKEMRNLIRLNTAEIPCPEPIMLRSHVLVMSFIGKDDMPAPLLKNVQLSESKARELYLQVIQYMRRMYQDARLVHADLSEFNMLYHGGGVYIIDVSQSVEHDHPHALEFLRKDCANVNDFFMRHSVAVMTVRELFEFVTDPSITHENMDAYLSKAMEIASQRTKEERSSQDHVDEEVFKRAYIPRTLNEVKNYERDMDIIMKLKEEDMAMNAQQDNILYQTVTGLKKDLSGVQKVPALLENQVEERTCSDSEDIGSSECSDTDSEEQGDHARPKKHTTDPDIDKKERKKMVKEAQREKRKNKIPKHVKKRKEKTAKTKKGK
# UniProt Q13546: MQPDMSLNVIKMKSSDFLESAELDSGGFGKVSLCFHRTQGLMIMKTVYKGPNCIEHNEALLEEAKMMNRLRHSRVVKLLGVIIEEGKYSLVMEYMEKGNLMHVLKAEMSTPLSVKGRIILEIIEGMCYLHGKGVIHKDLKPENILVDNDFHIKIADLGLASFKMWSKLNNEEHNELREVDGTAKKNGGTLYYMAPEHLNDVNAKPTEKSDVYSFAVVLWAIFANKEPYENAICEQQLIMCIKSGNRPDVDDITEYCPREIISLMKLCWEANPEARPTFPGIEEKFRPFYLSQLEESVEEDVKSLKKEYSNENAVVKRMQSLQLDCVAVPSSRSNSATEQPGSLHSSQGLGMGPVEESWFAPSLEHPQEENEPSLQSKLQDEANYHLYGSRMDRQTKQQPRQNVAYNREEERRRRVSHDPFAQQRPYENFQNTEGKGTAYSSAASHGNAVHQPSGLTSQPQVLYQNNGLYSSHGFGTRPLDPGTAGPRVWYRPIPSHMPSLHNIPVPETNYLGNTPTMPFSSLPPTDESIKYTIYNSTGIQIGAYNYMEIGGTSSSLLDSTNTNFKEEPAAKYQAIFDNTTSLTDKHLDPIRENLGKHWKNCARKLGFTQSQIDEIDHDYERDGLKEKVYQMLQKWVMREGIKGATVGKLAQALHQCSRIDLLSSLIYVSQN
# UniProt Q01974, whole entry: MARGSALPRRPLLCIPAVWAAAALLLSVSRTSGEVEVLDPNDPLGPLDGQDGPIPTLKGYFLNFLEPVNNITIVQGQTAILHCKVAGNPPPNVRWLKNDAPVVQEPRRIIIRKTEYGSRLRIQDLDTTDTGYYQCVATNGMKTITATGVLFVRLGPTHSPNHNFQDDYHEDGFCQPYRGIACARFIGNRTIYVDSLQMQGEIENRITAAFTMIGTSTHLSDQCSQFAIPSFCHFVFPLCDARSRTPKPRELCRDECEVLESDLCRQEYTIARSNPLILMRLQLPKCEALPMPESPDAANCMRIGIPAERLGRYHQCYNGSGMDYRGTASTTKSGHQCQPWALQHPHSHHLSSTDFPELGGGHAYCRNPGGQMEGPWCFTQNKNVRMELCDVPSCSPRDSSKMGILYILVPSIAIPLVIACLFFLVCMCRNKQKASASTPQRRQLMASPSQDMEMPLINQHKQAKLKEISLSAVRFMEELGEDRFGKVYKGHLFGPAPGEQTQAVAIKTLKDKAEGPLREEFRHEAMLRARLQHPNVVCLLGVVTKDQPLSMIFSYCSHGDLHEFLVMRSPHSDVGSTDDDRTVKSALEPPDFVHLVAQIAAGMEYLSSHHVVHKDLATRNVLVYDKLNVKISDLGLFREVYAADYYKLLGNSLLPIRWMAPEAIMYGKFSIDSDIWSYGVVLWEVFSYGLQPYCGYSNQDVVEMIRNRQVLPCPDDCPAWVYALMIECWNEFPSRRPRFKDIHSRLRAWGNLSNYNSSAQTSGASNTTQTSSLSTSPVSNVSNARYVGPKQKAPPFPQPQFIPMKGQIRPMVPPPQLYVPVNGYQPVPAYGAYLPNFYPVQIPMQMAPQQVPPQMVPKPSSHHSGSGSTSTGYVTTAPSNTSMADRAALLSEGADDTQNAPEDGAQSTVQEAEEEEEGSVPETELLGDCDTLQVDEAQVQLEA
# UniProt Q9NYA1, whole entry: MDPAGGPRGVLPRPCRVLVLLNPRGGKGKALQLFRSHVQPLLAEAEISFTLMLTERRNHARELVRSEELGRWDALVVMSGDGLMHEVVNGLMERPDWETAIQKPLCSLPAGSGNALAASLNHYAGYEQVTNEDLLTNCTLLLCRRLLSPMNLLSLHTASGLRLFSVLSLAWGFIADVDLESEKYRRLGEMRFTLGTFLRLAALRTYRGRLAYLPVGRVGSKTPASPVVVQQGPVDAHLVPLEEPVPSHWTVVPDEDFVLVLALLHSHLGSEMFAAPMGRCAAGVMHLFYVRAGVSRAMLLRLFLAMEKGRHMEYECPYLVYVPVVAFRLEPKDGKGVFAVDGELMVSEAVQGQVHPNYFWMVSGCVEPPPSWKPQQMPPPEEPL
# UniProt Q15208: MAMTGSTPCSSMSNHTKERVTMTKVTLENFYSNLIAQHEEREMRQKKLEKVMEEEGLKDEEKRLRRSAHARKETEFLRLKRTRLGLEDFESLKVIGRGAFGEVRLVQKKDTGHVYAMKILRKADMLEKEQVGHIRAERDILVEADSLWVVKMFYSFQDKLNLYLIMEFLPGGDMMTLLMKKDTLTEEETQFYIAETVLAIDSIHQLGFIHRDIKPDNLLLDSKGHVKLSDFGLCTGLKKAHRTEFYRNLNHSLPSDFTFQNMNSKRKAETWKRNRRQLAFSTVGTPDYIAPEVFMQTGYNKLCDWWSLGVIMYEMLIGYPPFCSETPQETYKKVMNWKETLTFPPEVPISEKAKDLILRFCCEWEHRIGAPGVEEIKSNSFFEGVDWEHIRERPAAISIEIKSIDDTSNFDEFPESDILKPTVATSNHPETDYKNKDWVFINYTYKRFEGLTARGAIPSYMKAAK
# UniProt P42680: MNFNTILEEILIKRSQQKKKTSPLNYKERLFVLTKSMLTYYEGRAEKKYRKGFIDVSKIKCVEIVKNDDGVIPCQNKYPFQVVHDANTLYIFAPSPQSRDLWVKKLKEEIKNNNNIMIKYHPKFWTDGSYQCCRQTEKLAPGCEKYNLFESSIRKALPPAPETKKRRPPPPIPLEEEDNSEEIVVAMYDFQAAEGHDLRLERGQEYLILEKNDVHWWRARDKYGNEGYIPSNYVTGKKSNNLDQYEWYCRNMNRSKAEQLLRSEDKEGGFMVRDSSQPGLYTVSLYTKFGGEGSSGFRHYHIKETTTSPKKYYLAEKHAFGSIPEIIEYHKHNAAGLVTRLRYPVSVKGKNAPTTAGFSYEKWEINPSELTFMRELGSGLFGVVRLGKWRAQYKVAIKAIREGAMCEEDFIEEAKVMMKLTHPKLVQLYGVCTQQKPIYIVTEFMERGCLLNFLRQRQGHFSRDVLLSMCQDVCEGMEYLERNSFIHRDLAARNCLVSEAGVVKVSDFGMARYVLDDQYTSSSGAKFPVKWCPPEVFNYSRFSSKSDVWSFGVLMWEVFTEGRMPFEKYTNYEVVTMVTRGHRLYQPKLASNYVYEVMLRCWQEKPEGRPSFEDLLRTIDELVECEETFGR
# UniProt P29597: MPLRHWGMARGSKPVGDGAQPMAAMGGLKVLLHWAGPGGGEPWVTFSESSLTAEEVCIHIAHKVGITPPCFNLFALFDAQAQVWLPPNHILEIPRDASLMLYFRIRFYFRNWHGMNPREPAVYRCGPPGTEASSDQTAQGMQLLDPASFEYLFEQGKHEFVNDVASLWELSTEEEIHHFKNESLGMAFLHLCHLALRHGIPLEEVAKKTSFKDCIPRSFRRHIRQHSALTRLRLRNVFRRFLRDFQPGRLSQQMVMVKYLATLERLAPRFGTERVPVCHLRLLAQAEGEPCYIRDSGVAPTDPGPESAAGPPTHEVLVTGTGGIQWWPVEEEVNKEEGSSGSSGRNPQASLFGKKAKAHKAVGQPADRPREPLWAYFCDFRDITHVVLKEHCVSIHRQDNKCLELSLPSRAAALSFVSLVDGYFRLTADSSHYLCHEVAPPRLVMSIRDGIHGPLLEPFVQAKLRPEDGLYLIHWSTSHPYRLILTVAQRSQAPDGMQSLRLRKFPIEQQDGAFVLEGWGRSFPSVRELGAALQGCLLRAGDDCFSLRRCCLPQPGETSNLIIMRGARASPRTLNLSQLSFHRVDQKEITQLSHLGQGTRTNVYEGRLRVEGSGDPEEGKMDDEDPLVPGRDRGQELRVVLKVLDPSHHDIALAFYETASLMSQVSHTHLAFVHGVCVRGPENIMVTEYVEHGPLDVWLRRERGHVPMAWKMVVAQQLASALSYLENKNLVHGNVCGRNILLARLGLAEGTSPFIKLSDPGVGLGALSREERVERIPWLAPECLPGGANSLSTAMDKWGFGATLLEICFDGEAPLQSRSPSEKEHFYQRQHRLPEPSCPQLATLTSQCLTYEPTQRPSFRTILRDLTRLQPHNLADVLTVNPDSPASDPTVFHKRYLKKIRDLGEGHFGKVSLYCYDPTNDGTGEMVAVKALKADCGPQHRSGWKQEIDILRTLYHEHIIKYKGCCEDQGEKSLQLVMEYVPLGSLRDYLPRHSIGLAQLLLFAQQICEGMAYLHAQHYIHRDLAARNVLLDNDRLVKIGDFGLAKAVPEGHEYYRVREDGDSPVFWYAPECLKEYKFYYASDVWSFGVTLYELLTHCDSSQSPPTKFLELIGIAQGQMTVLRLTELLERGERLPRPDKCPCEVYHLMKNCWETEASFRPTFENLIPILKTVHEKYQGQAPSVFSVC
# UniProt Q6PHR2: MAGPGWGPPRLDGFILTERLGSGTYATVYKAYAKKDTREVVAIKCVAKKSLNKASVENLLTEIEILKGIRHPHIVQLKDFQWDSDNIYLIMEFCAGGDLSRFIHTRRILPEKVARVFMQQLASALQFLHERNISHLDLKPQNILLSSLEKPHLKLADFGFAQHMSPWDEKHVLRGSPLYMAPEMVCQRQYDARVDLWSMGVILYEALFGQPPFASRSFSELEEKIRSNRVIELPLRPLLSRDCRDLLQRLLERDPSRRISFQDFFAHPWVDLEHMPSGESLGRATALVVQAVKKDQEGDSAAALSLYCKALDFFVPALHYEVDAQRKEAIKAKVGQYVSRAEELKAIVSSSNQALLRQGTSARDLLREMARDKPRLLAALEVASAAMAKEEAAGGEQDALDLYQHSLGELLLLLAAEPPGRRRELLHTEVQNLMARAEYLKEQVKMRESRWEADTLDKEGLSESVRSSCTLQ
# UniProt P07947, whole entry, looked up: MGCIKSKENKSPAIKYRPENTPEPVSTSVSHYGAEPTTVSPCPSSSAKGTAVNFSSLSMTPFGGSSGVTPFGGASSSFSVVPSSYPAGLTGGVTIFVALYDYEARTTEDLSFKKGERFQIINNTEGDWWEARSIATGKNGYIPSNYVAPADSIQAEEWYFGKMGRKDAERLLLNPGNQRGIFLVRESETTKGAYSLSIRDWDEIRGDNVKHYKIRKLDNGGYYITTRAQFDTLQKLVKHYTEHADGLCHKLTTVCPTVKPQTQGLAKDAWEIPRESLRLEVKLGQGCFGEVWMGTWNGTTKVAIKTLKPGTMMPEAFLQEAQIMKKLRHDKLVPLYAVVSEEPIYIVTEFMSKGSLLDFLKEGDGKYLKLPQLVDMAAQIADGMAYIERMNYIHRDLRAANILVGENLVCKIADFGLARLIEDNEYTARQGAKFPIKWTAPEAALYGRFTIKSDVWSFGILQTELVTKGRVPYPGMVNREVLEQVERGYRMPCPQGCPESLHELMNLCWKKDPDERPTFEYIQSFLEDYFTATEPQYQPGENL
# UniProt P11802: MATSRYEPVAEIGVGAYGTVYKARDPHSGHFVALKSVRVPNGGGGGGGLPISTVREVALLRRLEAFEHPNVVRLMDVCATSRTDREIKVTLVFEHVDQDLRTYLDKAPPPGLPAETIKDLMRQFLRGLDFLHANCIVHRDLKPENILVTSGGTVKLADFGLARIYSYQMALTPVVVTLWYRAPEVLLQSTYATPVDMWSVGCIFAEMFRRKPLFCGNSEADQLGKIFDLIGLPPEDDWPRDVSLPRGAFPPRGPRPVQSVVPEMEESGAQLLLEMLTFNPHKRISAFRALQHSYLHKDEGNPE
# UniProt P50613: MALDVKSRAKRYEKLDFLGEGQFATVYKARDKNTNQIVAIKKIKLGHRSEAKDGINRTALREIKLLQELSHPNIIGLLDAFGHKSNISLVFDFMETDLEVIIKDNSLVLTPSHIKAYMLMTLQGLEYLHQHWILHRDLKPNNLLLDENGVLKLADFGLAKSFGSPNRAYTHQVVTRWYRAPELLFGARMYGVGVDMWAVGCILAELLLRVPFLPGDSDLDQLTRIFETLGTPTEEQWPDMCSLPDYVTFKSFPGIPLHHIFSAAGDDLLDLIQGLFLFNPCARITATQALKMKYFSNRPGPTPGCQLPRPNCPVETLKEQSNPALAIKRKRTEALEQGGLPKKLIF
# This is one part of the list. Hit calls seldom repeat between salt and free forms of one compound.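 Kinases were expressed as nanoluciferase fusions in K562 cells and luminescence was read every 4 h between 2 and 18 h as percent of control, DMSO set to 100% and a positive control to 0%. A time point counts as decreased when the signal drops significantly (2 sigma). The hit call is the authors' own, does not follow from the count of time points alone, and its rule is not shown.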
# Assays:
# Conditions in all cases: K562, 2-18 h
# RIOK1 = RIOK1 (UniProt Q9BRS2); assay: kinase-Nluc reporter destabilization hit call (1 = scored as downregulated) (binary); higher = compound decreases kinase abundance
# RIPK1 = RIPK1 (UniProt Q13546); assay: as above
# RIPK2 = RIPK2 (UniProt O43353); assay: as above
# ROR2 = ROR2 (UniProt Q01974); assay: as above
# RPS6KA1 = RPS6KA1 (UniProt Q15418); assay: as above
# SPHK1 = SPHK1 (UniProt Q9NYA1); assay: as above
# SRC = SRC (UniProt P12931); assay: as above
# STK24 = STK24 (UniProt Q9Y6E0); assay: as above
# STK38 = STK38 (UniProt Q15208); assay: as above
# SYK = SYK (UniProt P43405); assay: as above
# TEC = TEC (UniProt P42680); assay: as above
# TYK2 = TYK2 (UniProt P29597); assay: as above
# ULK3 = ULK3 (UniProt Q6PHR2); assay: as above
# YES1 = YES1 (UniProt P07947); assay: as above
# ZAK = ZAK (UniProt Q9NYL2); assay: as above
# ZAP70 = ZAP70 (UniProt P43403); assay: as above
# CDK4 = CDK4 (UniProt P11802); assay: number of time points (of 4; 2 h point missing) at which kinase-Nluc abundance scored as decreased, DMSO-normalised (count); higher = more persistent destabilization
# CDK7 = CDK7 (UniProt P50613); assay: as above
# RET = RET (UniProt P07949); assay: kinase-Nluc reporter destabilization hit call (1 = scored as downregulated) (binary); higher = compound decreases kinase abundance
# [1] = target: RET_M918T (clone: RET_mut) (UniProt P07949); assay: as above
structure (smiles),measurement,setting,value
CC1(C)CNc2cc(NC(=O)c3cccnc3NCc3ccncc3)ccc21 [Motesanib (Diphosphate)],kinase-Nluc reporter destabilization hit call,RIOK1; 2.5 µM,inactive: 0
same,kinase-Nluc reporter destabilization hit call,RIPK1; 2.5 µM,inactive: 0
same,kinase-Nluc reporter destabilization hit call,RIPK2; 2.5 µM,inactive: 0
same,kinase-Nluc reporter destabilization hit call,ROR2; 2.5 µM,inactive: 0
same,kinase-Nluc reporter destabilization hit call,RPS6KA1; 2.5 µM,inactive: 0
same,kinase-Nluc reporter destabilization hit call,SPHK1; 2.5 µM,inactive: 0
same,kinase-Nluc reporter destabilization hit call,SRC; 2.5 µM,inactive: 0
same,kinase-Nluc reporter destabilization hit call,STK24; 2.5 µM,inactive: 0
same,kinase-Nluc reporter destabilization hit call,STK38; 2.5 µM,inactive: 0
same,kinase-Nluc reporter destabilization hit call,SYK; 2.5 µM,inactive: 0
same,kinase-Nluc reporter destabilization hit call,TEC; 2.5 µM,inactive: 0
same,kinase-Nluc reporter destabilization hit call,TYK2; 2.5 µM,inactive: 0
same,kinase-Nluc reporter destabilization hit call,ULK3; 2.5 µM,inactive: 0
same,kinase-Nluc reporter destabilization hit call,YES1; 2.5 µM,inactive: 0
same,kinase-Nluc reporter destabilization hit call,ZAK; 2.5 µM,inactive: 0
same,kinase-Nluc reporter destabilization hit call,ZAP70; 2.5 µM,inactive: 0
same,number of time points,CDK4; 2.5 µM,0
same,number of time points,CDK7; 2.5 µM,0
CCOc1nc(NC(=O)Cc2cc(OC)ccc2OC)cc(N)c1C#N [JNK Inhibitor VIII],kinase-Nluc reporter destabilization hit call,RET; 10 µM,inactive: 0
same,kinase-Nluc reporter destabilization hit call,[1]; 10 µM,inactive: 0
same,kinase-Nluc reporter destabilization hit call,RIOK1; 10 µM,inactive: 0
same,kinase-Nluc reporter destabilization hit call,RIPK1; 10 µM,inactive: 0
same,kinase-Nluc reporter destabilization hit call,RIPK2; 10 µM,inactive: 0
same,kinase-Nluc reporter destabilization hit call,ROR2; 10 µM,inactive: 0
same,kinase-Nluc reporter destabilization hit call,RPS6KA1; 10 µM,inactive: 0
same,kinase-Nluc reporter destabilization hit call,SPHK1; 10 µM,inactive: 0
same,kinase-Nluc reporter destabilization hit call,SRC; 10 µM,inactive: 0
same,kinase-Nluc reporter destabilization hit call,STK24; 10 µM,inactive: 0
same,kinase-Nluc reporter destabilization hit call,STK38; 10 µM,inactive: 0
same,kinase-Nluc reporter destabilization hit call,SYK; 10 µM,inactive: 0
same,kinase-Nluc reporter destabilization hit call,TEC; 10 µM,inactive: 0
same,kinase-Nluc reporter destabilization hit call,TYK2; 10 µM,inactive: 0
same,kinase-Nluc reporter destabilization hit call,ULK3; 10 µM,inactive: 0
same,kinase-Nluc reporter destabilization hit call,YES1; 10 µM,inactive: 0
same,kinase-Nluc reporter destabilization hit call,ZAK; 10 µM,inactive: 0
same,kinase-Nluc reporter destabilization hit call,ZAP70; 10 µM,inactive: 0
same,number of time points,CDK4; 10 µM,0
same,number of time points,CDK7; 10 µM,0
O=C1NCCc2[nH]c(-c3ccncc3)cc21,kinase-Nluc reporter destabilization hit call,RET; 2.5 µM,inactive: 0
same,kinase-Nluc reporter destabilization hit call,[1]; 2.5 µM,inactive: 0
same,kinase-Nluc reporter destabilization hit call,RIOK1; 2.5 µM,inactive: 0
same,kinase-Nluc reporter destabilization hit call,RIPK1; 2.5 µM,inactive: 0
same,kinase-Nluc reporter destabilization hit call,RIPK2; 2.5 µM,inactive: 0
same,kinase-Nluc reporter destabilization hit call,ROR2; 2.5 µM,inactive: 0
same,kinase-Nluc reporter destabilization hit call,RPS6KA1; 2.5 µM,inactive: 0
same,kinase-Nluc reporter destabilization hit call,SPHK1; 2.5 µM,inactive: 0
same,kinase-Nluc reporter destabilization hit call,SRC; 2.5 µM,inactive: 0
same,kinase-Nluc reporter destabilization hit call,STK24; 2.5 µM,inactive: 0
same,kinase-Nluc reporter destabilization hit call,STK38; 2.5 µM,inactive: 0
same,kinase-Nluc reporter destabilization hit call,TEC; 2.5 µM,inactive: 0
same,kinase-Nluc reporter destabilization hit call,TYK2; 2.5 µM,inactive: 0
same,kinase-Nluc reporter destabilization hit call,ULK3; 2.5 µM,inactive: 0
same,kinase-Nluc reporter destabilization hit call,YES1; 2.5 µM,inactive: 0
same,kinase-Nluc reporter destabilization hit call,ZAK; 2.5 µM,inactive: 0
same,kinase-Nluc reporter destabilization hit call,ZAP70; 2.5 µM,inactive: 0
same,number of time points,CDK4; 2.5 µM,0
same,number of time points,CDK7; 2.5 µM,0
Nc1ncnc2n[nH]c(-c3ccc(Oc4ccccc4)cc3)c12 [Ibrutinib deacryloylpiperidine],kinase-Nluc reporter destabilization hit call,RET; 10 µM,inactive: 0
same,kinase-Nluc reporter destabilization hit call,[1]; 10 µM,inactive: 0
same,kinase-Nluc reporter destabilization hit call,RIOK1; 10 µM,inactive: 0
same,kinase-Nluc reporter destabilization hit call,RIPK1; 10 µM,inactive: 0
same,kinase-Nluc reporter destabilization hit call,RIPK2; 10 µM,inactive: 0
same,kinase-Nluc reporter destabilization hit call,ROR2; 10 µM,inactive: 0
same,kinase-Nluc reporter destabilization hit call,RPS6KA1; 10 µM,inactive: 0
same,kinase-Nluc reporter destabilization hit call,SPHK1; 10 µM,inactive: 0
same,kinase-Nluc reporter destabilization hit call,STK24; 10 µM,inactive: 0
same,kinase-Nluc reporter destabilization hit call,STK38; 10 µM,inactive: 0
same,kinase-Nluc reporter destabilization hit call,SYK; 10 µM,inactive: 0
same,kinase-Nluc reporter destabilization hit call,TEC; 10 µM,inactive: 0
same,kinase-Nluc reporter destabilization hit call,TYK2; 10 µM,inactive: 0
same,kinase-Nluc reporter destabilization hit call,ULK3; 10 µM,inactive: 0
same,kinase-Nluc reporter destabilization hit call,YES1; 10 µM,inactive: 0
same,kinase-Nluc reporter destabilization hit call,ZAK; 10 µM,inactive: 0
same,kinase-Nluc reporter destabilization hit call,ZAP70; 10 µM,inactive: 0
same,number of time points,CDK4; 10 µM,0
same,number of time points,CDK7; 10 µM,0
Cc1cc2ncnn2cc1Nc1ncc2c(n1)n(C1CCOCC1)c(=O)n2C,kinase-Nluc reporter destabilization hit call,RIOK1; 10 µM,inactive: 0
same,kinase-Nluc reporter destabilization hit call,RIPK1; 10 µM,inactive: 0
same,kinase-Nluc reporter destabilization hit call,RIPK2; 10 µM,inactive: 0
same,kinase-Nluc reporter destabilization hit call,ROR2; 10 µM,inactive: 0
same,kinase-Nluc reporter destabilization hit call,RPS6KA1; 10 µM,inactive: 0
same,kinase-Nluc reporter destabilization hit call,SPHK1; 10 µM,inactive: 0
same,kinase-Nluc reporter destabilization hit call,SRC; 10 µM,inactive: 0
same,kinase-Nluc reporter destabilization hit call,STK24; 10 µM,inactive: 0
same,kinase-Nluc reporter destabilization hit call,TEC; 10 µM,inactive: 0
same,kinase-Nluc reporter destabilization hit call,TYK2; 10 µM,inactive: 0
same,kinase-Nluc reporter destabilization hit call,ULK3; 10 µM,inactive: 0
same,kinase-Nluc reporter destabilization hit call,YES1; 10 µM,inactive: 0
same,kinase-Nluc reporter destabilization hit call,ZAK; 10 µM,inactive: 0
same,kinase-Nluc reporter destabilization hit call,ZAP70; 10 µM,inactive: 0
same,number of time points,CDK4; 10 µM,0
same,number of time points,CDK7; 10 µM,0

# Six entries drawn at random from those above:
structure (smiles),measurement,setting,value
CCOc1nc(NC(=O)Cc2cc(OC)ccc2OC)cc(N)c1C#N [JNK Inhibitor VIII],kinase-Nluc reporter destabilization hit call,RIOK1; 10 µM,inactive: 0
O=C1NCCc2[nH]c(-c3ccncc3)cc21,kinase-Nluc reporter destabilization hit call,RIOK1; 2.5 µM,inactive: 0
Nc1ncnc2n[nH]c(-c3ccc(Oc4ccccc4)cc3)c12 [Ibrutinib deacryloylpiperidine],kinase-Nluc reporter destabilization hit call,ULK3; 10 µM,inactive: 0
CC1(C)CNc2cc(NC(=O)c3cccnc3NCc3ccncc3)ccc21 [Motesanib (Diphosphate)],kinase-Nluc reporter destabilization hit call,STK24; 2.5 µM,inactive: 0
O=C1NCCc2[nH]c(-c3ccncc3)cc21,kinase-Nluc reporter destabilization hit call,SPHK1; 2.5 µM,inactive: 0
CC1(C)CNc2cc(NC(=O)c3cccnc3NCc3ccncc3)ccc21 [Motesanib (Diphosphate)],kinase-Nluc reporter destabilization hit call,SRC; 2.5 µM,inactive: 0
